# Assay results: patent publication US20060127957A1, “Novel biologicalcancer marker and methods for determining the cancerous or non-cancerous phenotype of cells” (priority 2002, published 2006)
# At least one structure is not confirmed: it was looked up by name or label, or the drawing left a doubt. No end group written: not given here.
# System: MEF
# Assay: Filopodia formation in MEF (F-actin staining, cells with at least 5 filopodia scored positive)
# Assay type: cell-based, mouse
# Settings: bradykinin alone, 12 minutes treatment; naturally occurring in 13% of MEF
# Text: Human wild type p53 cDNA or its mutated forms, H175 and H273 were cloned into the BamH1 site of pCDNA3 vector (Invitrogen), then transferred in pEGFPC1 (Clontech) to give GFP-tagged proteins. Constructs expressing MYC epitope-tagged mutant Rac1, Cdc42 and RhoA proteins and their various mutants were kindly provided by P. Chavrier (Dutartre et al., 1996). The GFP fusion proteins were cloned in the pEGFP-C1 vector (Gauthier-Rouviere et al., 1998), (Ory et al., 2000), (Roux et al., 1997). The pcDNA3myc-NWASP containing the Cdc42-interacting domain of WASP was previously described in (Philips et al., 2000). The pGL2B-mdm2 plasmid in which the reporter gene luciferase is controlled by the p53-responsive element of mdm2 (Barak et al., 1994) was a kind gift of E. Yonish-Rouach. pTKRL plasmid was from Promega. TNFα, adriamycin and etoposide (Sigma) were used in all experiments at the concentration of 100 ng.ml^−1, 5 μg.ml^−1 and 25 μg.ml^−1, respectively.
# Cdc42-dependent filopodia formation was induced by bradykinin (Kozma et al., 1995; Nobes and Hall, 1995a). p53 was activated either by Tumor Necrosis Factor-a (TNFa), or using two cytotoxic drugs adriamycin and etoposide, previously shown to induce accumulation of p53 in MEF (Klefstrom et al., 1997; Lowe et al., 1993).
sequence,measurement,value
RPPGFSPFR [bradykinin],MEF having filopodia (bradykinin-mediated filopodia formation),62%
